Experimental data published in paper PMC4617175.
Results are given in words; binding and its absence hold for the method and conditions named. In cells and extracts the contact can be indirect. Some results given as binding are weak or reduced against the parent protein; the word gives no strength.

By UniProt entry, the sequences of proteins in these tests, tags left out.
UniProt Q9JIS7: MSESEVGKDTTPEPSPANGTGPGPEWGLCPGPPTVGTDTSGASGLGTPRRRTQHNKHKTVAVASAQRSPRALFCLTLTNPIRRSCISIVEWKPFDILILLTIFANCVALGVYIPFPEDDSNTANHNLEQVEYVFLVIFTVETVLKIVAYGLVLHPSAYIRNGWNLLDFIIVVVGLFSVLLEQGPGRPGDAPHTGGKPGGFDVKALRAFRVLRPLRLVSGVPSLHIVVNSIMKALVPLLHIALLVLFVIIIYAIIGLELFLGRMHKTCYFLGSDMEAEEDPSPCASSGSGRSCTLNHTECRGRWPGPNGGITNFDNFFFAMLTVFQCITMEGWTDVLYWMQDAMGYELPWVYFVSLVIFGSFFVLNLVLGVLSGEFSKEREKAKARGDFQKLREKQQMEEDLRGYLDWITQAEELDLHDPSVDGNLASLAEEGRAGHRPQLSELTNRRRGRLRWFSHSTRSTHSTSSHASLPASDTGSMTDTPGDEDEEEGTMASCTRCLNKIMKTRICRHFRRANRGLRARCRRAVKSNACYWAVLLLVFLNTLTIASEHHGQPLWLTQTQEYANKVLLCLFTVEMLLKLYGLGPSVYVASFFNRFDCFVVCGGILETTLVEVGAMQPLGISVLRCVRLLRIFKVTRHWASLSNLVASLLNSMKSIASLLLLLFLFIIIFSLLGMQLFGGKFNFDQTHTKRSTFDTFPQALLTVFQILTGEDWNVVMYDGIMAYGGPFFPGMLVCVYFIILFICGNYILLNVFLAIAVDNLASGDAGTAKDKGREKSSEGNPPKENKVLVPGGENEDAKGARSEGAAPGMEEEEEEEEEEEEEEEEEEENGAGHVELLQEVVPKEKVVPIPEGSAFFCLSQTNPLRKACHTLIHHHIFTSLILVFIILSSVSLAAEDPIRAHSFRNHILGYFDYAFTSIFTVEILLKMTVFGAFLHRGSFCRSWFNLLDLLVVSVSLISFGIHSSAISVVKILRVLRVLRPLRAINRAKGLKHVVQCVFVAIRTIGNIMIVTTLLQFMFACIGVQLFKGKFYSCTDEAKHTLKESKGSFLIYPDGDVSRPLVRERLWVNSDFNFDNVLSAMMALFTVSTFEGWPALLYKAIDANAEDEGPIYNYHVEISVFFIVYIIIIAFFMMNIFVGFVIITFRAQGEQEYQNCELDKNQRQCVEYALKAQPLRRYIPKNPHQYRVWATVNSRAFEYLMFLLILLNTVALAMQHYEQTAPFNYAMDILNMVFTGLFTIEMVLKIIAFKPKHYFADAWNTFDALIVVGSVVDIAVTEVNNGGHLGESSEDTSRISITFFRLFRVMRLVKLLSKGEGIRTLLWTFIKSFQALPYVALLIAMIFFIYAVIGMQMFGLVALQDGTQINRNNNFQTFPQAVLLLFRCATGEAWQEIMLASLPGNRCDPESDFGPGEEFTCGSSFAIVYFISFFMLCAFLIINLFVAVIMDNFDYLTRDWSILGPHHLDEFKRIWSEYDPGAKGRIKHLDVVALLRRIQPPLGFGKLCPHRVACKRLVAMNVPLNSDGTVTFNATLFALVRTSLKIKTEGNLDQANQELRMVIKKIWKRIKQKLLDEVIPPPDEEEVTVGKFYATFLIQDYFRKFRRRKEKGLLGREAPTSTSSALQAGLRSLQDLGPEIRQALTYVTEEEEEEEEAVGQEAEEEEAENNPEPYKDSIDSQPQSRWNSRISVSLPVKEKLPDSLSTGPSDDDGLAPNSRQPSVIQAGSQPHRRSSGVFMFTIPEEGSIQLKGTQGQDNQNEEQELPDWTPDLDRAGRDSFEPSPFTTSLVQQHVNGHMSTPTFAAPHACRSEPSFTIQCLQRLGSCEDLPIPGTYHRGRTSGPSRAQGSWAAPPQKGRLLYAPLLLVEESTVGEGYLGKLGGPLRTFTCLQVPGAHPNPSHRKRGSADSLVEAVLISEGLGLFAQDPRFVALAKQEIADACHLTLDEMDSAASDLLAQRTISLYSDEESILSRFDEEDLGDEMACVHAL

Target: T1, murine TMEM16A expressed in tsA-201 cells (Ano1 clone in pCMV6-Kan/Neo) (mouse) (UniProt Q8BHY3)
T1 sequence: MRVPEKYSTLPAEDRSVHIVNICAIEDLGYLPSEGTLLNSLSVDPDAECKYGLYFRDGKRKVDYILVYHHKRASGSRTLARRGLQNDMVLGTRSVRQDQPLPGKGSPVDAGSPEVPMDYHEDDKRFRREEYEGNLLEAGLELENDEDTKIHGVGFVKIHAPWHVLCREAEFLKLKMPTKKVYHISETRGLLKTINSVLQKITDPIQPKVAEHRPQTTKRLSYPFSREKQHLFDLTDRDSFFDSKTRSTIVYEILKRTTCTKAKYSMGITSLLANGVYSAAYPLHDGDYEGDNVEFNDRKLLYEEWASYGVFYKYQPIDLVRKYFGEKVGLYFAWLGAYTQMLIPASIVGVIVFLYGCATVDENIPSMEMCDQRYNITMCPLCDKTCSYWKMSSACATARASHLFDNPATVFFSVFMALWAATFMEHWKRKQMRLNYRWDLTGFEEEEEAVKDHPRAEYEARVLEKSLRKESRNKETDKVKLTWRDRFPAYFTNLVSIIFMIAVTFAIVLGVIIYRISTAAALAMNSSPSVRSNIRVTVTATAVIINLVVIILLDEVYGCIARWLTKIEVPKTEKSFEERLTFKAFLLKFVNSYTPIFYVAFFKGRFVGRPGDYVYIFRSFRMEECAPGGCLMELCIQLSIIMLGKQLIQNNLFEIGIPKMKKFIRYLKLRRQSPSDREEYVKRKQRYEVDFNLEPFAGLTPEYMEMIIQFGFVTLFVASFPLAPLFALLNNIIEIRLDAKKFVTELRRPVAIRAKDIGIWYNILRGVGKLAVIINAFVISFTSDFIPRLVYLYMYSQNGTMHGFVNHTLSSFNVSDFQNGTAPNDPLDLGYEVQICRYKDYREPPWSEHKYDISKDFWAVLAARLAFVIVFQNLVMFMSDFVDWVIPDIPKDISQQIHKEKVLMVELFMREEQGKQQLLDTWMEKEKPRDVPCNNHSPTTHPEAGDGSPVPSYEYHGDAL
Experiment: co-IP; lysates of tsA-201 cells co-transfected with TMEM16A, Cav1.4, β2 and WT or mutant α2δ4; anti-TMEM16A antibody, protein G-agarose; buffer in which the VGCC subunits are dissociated; blots with anti-pan-α1 or anti-Cav1.4

- binding: binds
Substance: murine CaV1.4 expressed in tsA-201 cells (Cacna1f clone in pIRES2-mCherry) (from UniProt Q9JIS7 1-1985)
